Percent effect of library compounds

Source: ChEMBL document CHEMBL3988442, “University of Dundee, Small-Polar-MMV Screening Library” (2021).

Mtb cholesterol medium: 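Whole-cell growth test on Mycobacterium tuberculosis, read after 4 days in a medium based on cholesterol and the lipid DPPC; the read-out is not stated. Concentration: 50 µM. Higher reads as more growth inhibition (inferred: compounds with an IC50 in retests scored well above the rest). About 69,000 compounds were tested under these conditions; 0.54% (about 370) showed 50% or more at least once.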
Mtb glucose medium: 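Growth of Mycobacterium tuberculosis over 3 days (7H9 medium with glucose and tyloxapol); the read-out is not stated. Tested at 50 µM. Higher reads as more growth inhibition (inferred: compounds with an IC50 in retests scored well above the rest). Of about 69,000 compounds tested this way, about 760 (1.1%) reached 50% or more in at least one test.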

Results are given as percent effect.
How 0% and 100% were set is not recorded. Most values in the screen are low, and negative values occur.
Compounds were drawn at random from those tested, without regard to their results.
Two or more numbers in one place are separate tests of the same structure; such repeats can differ widely.

CC1(C)CN(Cc2nnc(-c3cccnc3)o2)CC[C@]1(C)O gave Mtb cholesterol medium: -2.613%; Mtb glucose medium: 6.085%.
CCc1nc(CN2CCN(C(=O)c3csc(C(C)C)n3)CC2)no1 gave Mtb cholesterol medium: -4.283%; Mtb glucose medium: -31.9% and -9.038%.
CC(C)(C)C(=O)NCCc1ccn(-c2ccccc2)n1 gave Mtb cholesterol medium: 5.224%; Mtb glucose medium: 19.22%.
CCOc1ncccc1C(=O)N1CCC(Nc2ccc(C)nn2)CC1 gave Mtb cholesterol medium: -3.066%; Mtb glucose medium: 11.72%.
CCC(Cn1ccc2[nH]c(=O)c(C#N)cc2c1=O)OC (centres unmarked) gave Mtb cholesterol medium: 3.588%; Mtb glucose medium: 0.6509%.
CN(C)c1ccc(NC(=O)NCc2cccnc2N(C)C)cn1 gave Mtb cholesterol medium: -7.273%; Mtb glucose medium: 25.18%.
CN1CCN(c2ccc(NCc3ccc(OC(F)(F)F)cc3)cn2)CC1 gave Mtb cholesterol medium: -8.437%; Mtb glucose medium: 17.37% and -32.9%.
CCN1C(=O)CCCC12CCCN(C(=O)c1ccoc1)C2 (centres unmarked) gave Mtb cholesterol medium: 9.169%; Mtb glucose medium: -4.87% and -9.923%.
Cc1cc(C(=O)N2CCCN(Cc3cnn(C(C)C)c3)CC2)no1 gave Mtb cholesterol medium: -2.655% and -14.55%; Mtb glucose medium: -7.919%.
COC(=O)[C@@H](NC(=O)c1coc(COc2cccc(F)c2)n1)C(C)C gave Mtb cholesterol medium: -10.15% and 20.81%; Mtb glucose medium: -5.217% and 18.3%.
Cc1ccc(OCC(C)NS(C)(=O)=O)cc1C (centres unmarked) gave Mtb cholesterol medium: 9.566%; Mtb glucose medium: 7.891%.
CNc1ncc(CN(C)c2ncnc3onc(C)c23)cn1 gave Mtb cholesterol medium: -17.67%; Mtb glucose medium: -20.91%.
Cc1ccc(S(=O)(=O)NC(=O)COc2ccc(CC#N)cc2)s1 gave Mtb cholesterol medium: -15.31%; Mtb glucose medium: -10.99% and -4.22%.
[H][C@]12CN(C(=O)c3ccoc3C)C[C@@]1([H])OCCN(S(C)(=O)=O)C2 gave Mtb cholesterol medium: -17.47%; Mtb glucose medium: -10.84% and -17.05%.
Cc1cc(-c2cnc(N3CCSCC3)nc2-c2ccc(C)s2)on1 gave Mtb cholesterol medium: 1.314%; Mtb glucose medium: 3.13%.
Cn1c(C(=O)NC2CC2)nc2c1CCN(c1ncccn1)C2 gave Mtb cholesterol medium: 26.77%; Mtb glucose medium: -1.502% and 4.352%.
CN(Cc1ccc(Cl)s1)C(=O)NCCN1CCCCCC1=O gave Mtb cholesterol medium: -3.226% and 0.3413%; Mtb glucose medium: 13.35%.
Cn1nccc1CNC(=O)CCn1nc(C(F)(F)F)c(Cl)c1C1CC1 gave Mtb cholesterol medium: -0.1453%; Mtb glucose medium: 12.58%.
Cc1cc(CNC(=O)N2CCN(c3ccccc3)CC2)no1 gave Mtb cholesterol medium: -30.34% and 5.321%; Mtb glucose medium: 12.71%.
Cc1ccccc1C1(C(=O)NCCN2CCCCC2C)CCOCC1 (centres unmarked) gave Mtb cholesterol medium: -18.39%; Mtb glucose medium: -25.85%.
COc1nc2c(cc1C(=O)N1C[C@@H](N)C[C@H]1C(=O)NC(C)C)CCC2 gave Mtb cholesterol medium: -0.1869%; Mtb glucose medium: 2.821% and 14.16%.
[H][C@]12CC[C@]([H])(CN(S(C)(=O)=O)C1)N(C(=O)CCc1ccsc1)C2 gave Mtb cholesterol medium: 11.16% and 1.476%; Mtb glucose medium: -9.702%.
CN(C(=O)CN1CCC(c2cc3ccccc3[nH]2)CC1)C1CC1 gave Mtb cholesterol medium: -9.401%; Mtb glucose medium: -18.86% and 9.151%.
CN(C)Cc1ccc(C2CCCCN2C(=O)c2ncccc2O)cc1 (centres unmarked) gave Mtb cholesterol medium: -7.663%; Mtb glucose medium: -11.49%.
CCc1cc(=O)[nH]c(-c2ccc(NCCC(C)O)nc2)n1 (centres unmarked) gave Mtb cholesterol medium: -1.555%; Mtb glucose medium: 9.868%.
Cc1nn(-c2ccccc2)c2c1c(C(F)F)cc(=O)n2CC(=O)O gave Mtb cholesterol medium: 19.65%; Mtb glucose medium: 33.07%.
Cc1ccc2nc(C3CCCN3Cc3nnc(C)s3)[nH]c2c1 (centres unmarked) gave Mtb cholesterol medium: -54.63% and 46.87%; Mtb glucose medium: -64.15%.
Cc1nn(C)c2cn(CC(=O)N3CCN(c4ccccn4)CC3)nc12 gave Mtb cholesterol medium: 0.2396%; Mtb glucose medium: -27.73%.
COC(=O)c1ccc(N(C)C2CCC2)nn1 gave Mtb cholesterol medium: -5.422%; Mtb glucose medium: -20.3%.
CN1CCN(C(=O)c2cc3c(s2)CCN3C(=O)C2CC2)CC1 gave Mtb cholesterol medium: -4.78%; Mtb glucose medium: -1.614%.